{
  "source": "patent US20030100058A1",
  "binders": {"B1": {"name": "XF11.1D8 (antibody, V domains shown)", "VH": "QVQLQESGPGLVKPSETLSLTCTVSGGSISSFYWSWIRQPAGKGLDWIGRIYTSGNTNYNPSLKSRVTMSVDTSKNRFSLKLSSVTAADTAVYYCARDRGSSWYPDAFDIWGQGTMVTVSS", "VL": "DIVLTHSPGTLSLSPGERATLSCRASQRVTSSCLAWYQQKPGQAPRLLIYGTSSRATGIPDRFSGSGSGTDFTLTISRLEPEDFAVYYCQQYVSSPLTFGQGTRLEIKR"}},
  "key": {"[1]": {"target": "Human G-protein Chemokine Receptor (CCR5) HDGNR10 (human)", "assay": "membrane ELISA, CCR5 CHO plasma membranes"}, "[2]": {"target": "Human G-protein Chemokine Receptor (CCR5) HDGNR10 (human)", "assay": "FACS, hybridoma supernatant on CCR5 CHO cells against vector control CHO cells"}},
  "note": "No constants are given. Whether binding was seen depends on the method and setting. Binding can be weak; no strength is given.",
  "data": [
    {"binder": "B1", "values": [
      {"measurement": "binding", "setting": "[1]", "value": "binds"},
      {"measurement": "binding", "setting": "[2]", "value": "binds"}
    ]}
  ]
}
